Test results: PMC12915084, “A dsRNA Viral Transcriptional Regulator Evades Innate Immunity by Hijacking Host CoTranscription Factor DHX9”
These are yes or no findings as the source states them, for the method shown. Binding seen in cells or lysates may run through a third protein. A yes stands for co-enrichment or nearness to the bait. Other partners may have been found.

Protein sequences, listed by entry. Tags and fused reporters are not part of them.
UniProt P06748: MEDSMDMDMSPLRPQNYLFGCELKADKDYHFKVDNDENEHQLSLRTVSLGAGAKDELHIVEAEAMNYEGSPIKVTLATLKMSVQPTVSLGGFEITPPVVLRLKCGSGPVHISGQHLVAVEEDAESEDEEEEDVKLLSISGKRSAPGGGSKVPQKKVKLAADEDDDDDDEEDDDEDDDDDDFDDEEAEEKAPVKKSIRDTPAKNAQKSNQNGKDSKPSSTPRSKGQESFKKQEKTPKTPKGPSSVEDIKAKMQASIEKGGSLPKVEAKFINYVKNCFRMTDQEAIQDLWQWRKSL
UniProt Q12905: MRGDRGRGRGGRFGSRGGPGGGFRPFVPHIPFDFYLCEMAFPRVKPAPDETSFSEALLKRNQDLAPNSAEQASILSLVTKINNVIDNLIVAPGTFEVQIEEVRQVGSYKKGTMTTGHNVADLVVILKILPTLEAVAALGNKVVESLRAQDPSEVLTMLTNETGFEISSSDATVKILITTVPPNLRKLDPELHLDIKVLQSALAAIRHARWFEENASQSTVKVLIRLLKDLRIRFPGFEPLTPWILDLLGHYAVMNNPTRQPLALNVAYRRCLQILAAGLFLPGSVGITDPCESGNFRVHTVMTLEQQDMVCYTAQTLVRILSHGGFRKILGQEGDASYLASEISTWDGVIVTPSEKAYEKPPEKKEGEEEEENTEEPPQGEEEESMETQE
UniProt P78527: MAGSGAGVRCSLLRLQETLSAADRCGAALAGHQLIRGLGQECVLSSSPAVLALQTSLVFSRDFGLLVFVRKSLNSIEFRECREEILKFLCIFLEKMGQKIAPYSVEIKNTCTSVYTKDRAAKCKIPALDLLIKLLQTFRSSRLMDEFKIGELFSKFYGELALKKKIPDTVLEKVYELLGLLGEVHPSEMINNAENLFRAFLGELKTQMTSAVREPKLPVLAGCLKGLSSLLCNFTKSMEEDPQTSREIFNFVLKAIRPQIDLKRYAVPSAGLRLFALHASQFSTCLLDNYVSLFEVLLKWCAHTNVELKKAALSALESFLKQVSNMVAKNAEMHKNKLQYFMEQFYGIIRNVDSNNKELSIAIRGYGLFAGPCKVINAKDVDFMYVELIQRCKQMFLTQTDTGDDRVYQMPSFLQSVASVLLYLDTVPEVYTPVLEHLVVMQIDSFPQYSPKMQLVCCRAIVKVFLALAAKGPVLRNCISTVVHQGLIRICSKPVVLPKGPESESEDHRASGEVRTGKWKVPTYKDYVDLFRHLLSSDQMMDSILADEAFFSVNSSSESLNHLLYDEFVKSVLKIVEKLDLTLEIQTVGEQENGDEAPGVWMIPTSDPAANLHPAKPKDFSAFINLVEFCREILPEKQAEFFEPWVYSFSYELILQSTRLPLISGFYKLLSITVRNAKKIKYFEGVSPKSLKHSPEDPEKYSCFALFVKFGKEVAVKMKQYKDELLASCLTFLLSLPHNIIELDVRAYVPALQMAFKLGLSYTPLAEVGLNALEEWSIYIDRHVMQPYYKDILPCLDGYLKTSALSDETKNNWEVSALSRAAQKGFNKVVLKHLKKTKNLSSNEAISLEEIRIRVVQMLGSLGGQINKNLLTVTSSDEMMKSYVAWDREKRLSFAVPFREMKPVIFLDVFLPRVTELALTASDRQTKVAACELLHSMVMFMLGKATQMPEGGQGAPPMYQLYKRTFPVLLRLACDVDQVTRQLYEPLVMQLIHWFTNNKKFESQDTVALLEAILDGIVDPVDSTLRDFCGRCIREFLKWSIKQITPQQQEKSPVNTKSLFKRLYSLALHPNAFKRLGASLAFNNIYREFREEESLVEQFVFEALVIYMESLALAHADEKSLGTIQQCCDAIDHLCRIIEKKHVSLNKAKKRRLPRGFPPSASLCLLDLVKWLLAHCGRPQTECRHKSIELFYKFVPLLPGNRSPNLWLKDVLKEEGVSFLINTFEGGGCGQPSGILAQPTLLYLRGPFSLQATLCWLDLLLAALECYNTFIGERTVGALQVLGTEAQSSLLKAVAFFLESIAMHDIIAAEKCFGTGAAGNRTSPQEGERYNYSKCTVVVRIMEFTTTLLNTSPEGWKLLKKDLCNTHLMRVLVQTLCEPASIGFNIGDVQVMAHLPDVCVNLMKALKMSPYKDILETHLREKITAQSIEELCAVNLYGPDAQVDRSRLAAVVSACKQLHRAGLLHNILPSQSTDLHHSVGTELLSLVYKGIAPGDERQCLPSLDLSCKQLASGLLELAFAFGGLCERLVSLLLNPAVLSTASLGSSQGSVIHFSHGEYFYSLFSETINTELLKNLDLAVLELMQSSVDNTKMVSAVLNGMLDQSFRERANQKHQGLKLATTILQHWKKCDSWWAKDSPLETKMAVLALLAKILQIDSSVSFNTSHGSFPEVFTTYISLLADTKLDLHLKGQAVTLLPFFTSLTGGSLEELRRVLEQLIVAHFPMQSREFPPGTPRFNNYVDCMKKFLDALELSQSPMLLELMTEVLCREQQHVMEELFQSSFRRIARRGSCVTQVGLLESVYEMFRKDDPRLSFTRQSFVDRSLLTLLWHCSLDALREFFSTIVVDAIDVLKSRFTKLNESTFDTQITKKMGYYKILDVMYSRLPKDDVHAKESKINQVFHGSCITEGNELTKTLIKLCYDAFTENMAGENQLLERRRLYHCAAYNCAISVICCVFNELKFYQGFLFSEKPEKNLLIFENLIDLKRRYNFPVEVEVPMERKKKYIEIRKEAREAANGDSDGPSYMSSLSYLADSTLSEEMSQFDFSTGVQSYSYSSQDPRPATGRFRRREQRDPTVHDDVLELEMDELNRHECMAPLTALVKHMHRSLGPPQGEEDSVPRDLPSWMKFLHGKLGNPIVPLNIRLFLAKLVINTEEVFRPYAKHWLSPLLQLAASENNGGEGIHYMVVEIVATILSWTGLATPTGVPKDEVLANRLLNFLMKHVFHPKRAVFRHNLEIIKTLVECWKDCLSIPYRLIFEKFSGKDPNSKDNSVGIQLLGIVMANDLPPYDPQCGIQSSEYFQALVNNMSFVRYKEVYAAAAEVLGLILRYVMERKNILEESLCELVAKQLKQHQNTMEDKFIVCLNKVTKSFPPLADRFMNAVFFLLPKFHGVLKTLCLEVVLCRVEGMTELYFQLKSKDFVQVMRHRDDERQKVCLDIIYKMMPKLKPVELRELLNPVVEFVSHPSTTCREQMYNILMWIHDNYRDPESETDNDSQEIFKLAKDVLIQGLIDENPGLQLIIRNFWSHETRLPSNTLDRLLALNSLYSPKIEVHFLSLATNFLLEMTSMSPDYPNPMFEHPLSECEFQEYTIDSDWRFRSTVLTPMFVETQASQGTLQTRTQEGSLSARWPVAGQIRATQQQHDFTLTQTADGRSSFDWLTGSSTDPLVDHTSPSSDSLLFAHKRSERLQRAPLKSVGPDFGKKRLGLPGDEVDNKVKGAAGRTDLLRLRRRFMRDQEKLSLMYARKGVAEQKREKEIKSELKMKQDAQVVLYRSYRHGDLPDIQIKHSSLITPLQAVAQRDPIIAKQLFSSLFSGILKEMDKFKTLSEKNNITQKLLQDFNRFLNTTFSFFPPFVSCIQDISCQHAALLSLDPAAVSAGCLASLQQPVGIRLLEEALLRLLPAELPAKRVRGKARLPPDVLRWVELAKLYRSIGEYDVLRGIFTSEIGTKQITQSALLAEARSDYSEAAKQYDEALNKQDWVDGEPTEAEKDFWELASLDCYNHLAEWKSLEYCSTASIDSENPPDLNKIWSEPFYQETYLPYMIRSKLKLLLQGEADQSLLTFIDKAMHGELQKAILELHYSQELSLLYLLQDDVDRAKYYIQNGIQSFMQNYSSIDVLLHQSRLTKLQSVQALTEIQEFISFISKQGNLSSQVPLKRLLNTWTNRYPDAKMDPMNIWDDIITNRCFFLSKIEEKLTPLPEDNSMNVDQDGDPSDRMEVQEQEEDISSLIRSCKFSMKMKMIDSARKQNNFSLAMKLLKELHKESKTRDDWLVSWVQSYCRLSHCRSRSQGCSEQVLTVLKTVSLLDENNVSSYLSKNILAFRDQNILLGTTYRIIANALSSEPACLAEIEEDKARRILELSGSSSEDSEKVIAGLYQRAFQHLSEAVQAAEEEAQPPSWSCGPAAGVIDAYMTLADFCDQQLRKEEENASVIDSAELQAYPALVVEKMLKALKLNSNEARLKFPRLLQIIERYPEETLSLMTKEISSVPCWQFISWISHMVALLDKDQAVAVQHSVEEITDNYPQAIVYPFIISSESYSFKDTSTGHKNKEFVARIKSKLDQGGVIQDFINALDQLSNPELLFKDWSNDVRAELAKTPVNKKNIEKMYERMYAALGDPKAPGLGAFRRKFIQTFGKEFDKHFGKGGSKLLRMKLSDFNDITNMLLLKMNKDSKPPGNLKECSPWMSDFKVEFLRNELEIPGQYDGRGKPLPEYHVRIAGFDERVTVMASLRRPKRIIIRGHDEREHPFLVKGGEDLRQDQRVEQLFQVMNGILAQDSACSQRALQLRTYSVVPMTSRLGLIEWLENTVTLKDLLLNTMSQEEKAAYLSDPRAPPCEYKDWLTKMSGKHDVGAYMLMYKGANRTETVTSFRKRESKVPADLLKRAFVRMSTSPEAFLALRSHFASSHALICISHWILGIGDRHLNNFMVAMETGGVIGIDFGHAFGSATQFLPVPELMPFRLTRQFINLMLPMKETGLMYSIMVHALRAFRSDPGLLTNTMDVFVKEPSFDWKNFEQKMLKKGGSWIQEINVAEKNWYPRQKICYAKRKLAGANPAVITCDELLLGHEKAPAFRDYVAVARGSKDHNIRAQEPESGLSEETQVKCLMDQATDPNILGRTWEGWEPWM

B1: ILF3 (protein, UniProt Q12906 1-894)
chain: MRPMRIFVNDDRHVMAKHSSVYPTQEELEAVQNMVSHTERALKAVSDWIDEQEKGSSEQAESDNMDVPPEDDSKEGAGEQKTEHMTRTLRGVMRVGLVAKGLLLKGDLDLELVLLCKEKPTTALLDKVADNLAIQLAAVTEDKYEILQSVDDAAIVIKNTKEPPLSLTIHLTSPVVREEMEKVLAGETLSVNDPPDVLDRQKCLAALASLRHAKWFQARANGLKSCVIVIRVLRDLCTRVPTWGPLRGWPLELLCEKSIGTANRPMGAGEALRRVLECLASGIVMPDGSGIYDPCEKEATDAIGHLDRQQREDITQSAQHALRLAAFGQLHKVLGMDPLPSKMPKKPKNENPVDYTVQIPPSTTYAITPMKRPMEEDGEEKSPSKKKKKIQKKEEKAEPPQAMNALMRLNQLKPGLQYKLVSQTGPVHAPIFTMSVEVDGNSFEASGPSKKTAKLHVAVKVLQDMGLPTGAEGRDSSKGEDSAEETEAKPAVVAPAPVVEAVSTPSAAFPSDATAEQGPILTKHGKNPVMELNEKRRGLKYELISETGGSHDKRFVMEVEVDGQKFQGAGSNKKVAKAYAALAALEKLFPDTPLALDANKKKRAPVPVRGGPKFAAKPHNPGFGMGGPMHNEVPPPPNLRGRGRGGSIRGRGRGRGFGGANHGGYMNAGAGYGSYGYGGNSATAGYSQFYSNGGHSGNASGGGGGGGGGSSGYGSYYQGDNYNSPVPPKHAGKKQPHGGQQKPSYGSGYQSHQGQQQSYNQSPYSNYGPPQGKQKGYNHGQGSYSYSNSYNSPGGGGGSDYNYESKFNYSGSGGRSGGNSYGSGGASYNPGSHGGYGGGSGGGSSYQGKQGGYSQSNYNSPGSGQNYSGPPSSYQSSQGGYGRNADHSMNYQYR
B2: HNRNPL (protein, UniProt P14866 1-589)
chain: MSRRLLPRAEKRRRRLEQRQQPDEQRRRSGAMVKMAAAGGGGGGGRYYGGGSEGGRAPKRLKTDNAGDQHGGGGGGGGGAGAAGGGGGGENYDDPHKTPASPVVHIRGLIDGVVEADLVEALQEFGPISYVVVMPKKRQALVEFEDVLGACNAVNYAADNQIYIAGHPAFVNYSTSQKISRPGDSDDSRSVNSVLLFTILNPIYSITTDVLYTICNPCGPVQRIVIFRKNGVQAMVEFDSVQSAQRAKASLNGADIYSGCCTLKIEYAKPTRLNVFKNDQDTWDYTNPNLSGQGDPGSNPNKRQRQPPLLGDHPAEYGGPHGGYHSHYHDEGYGPPPPHYEGRRMGPPVGGHRRGPSRYGPQYGHPPPPPPPPEYGPHADSPVLMVYGLDQSKMNCDRVFNVFCLYGNVEKVKFMKSKPGAAMVEMADGYAVDRAITHLNNNFMFGQKLNVCVSKQPAIMPGQSYGLEDGSCSYKDFSESRNNRFSTPEQAAKNRIQHPSNVLHFFNAPLEVTEENFFEICDELGVKRPSSVKVFSGKSERSSSGLLEWESKSDALETLGFLNHYQMKNPNGPYPYTLKLCFSTAQHAS

Molecular target: pNTAP-σ3 (outer capsid protein σ3 of the T1L REOV strain in the pNTAP-A vector) (Mammalian orthoreovirus (REOV), strain T1L) (UniProt P07939)
Experiment: affinity purification with mass spectrometry; tandem affinity purification of pNTAP-σ3 from transfected cells (streptavidin resin, then calmodulin resin), LC-MS/MS; pNTAP empty vector as control

Row | Molecule | binding
1 | NPM1 (from UniProt P06748 1-294) | binds
2 | ILF2 (from UniProt Q12905 1-390) | binds
3 | PRKDC (from UniProt P78527 1-4128) | binds
4 | B1 | binds
5 | B2 | binds
